The list shows a part of the results.
Experiments:
Assay in all cases: glycan array binding signal (z-score within array); higher = stronger binding
Conditions in all cases: glycan notation: IUPAC condensed, linker removed
[1] = biological target: GlcNAc(a1-6)Gal(b1-4)GlcNAc
Procedure, shortened: (§1)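 Glycan array data were curated from 3228 arrays in the Consortium for Functional Glycomics database and kept only where the protein sequence was available. Glycan names were converted to IUPAC-condensed notation, and columns mapping to the same glycan were averaged. The binding signal is a within-array Z-score, averaged across arrays of the same protein sequence at different concentrations or buffers and across linkers. Negative Z-scores can be read as non-binding.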

[2] = biological target: GlcNAc(b1-2)Gal(b1-3)GalNAc
Procedure, shortened: as §1

[3] = biological target: GlcNAc(b1-2)Man(a1-3)[GlcNAc(b1-2)Man(a1-6)]Man(b1-4)GlcNAc(b1-4)GlcNAc
Procedure, shortened: as §1

[4] = biological target: GlcNAc(b1-2)Man(a1-3)[GlcNAc(b1-2)Man(a1-6)]Man(b1-4)GlcNAc(b1-4)[Fuc(a1-6)]GlcNAc
Procedure, shortened: as §1

[5] = biological target: GlcNAc(b1-2)Man(a1-3)[GlcNAc(b1-4)][GlcNAc(b1-2)Man(a1-6)]Man(b1-4)GlcNAc(b1-4)GlcNAc
Procedure, shortened: as §1

[6] = biological target: GlcNAc(b1-2)Man(a1-3)[GlcNAc(b1-4)][GlcNAc(b1-2)Man(a1-6)]Man(b1-4)GlcNAc(b1-4)[Fuc(a1-6)]GlcNAc
Procedure, shortened: as §1

[7] = biological target: GlcNAc(b1-2)[GlcNAc(b1-4)]Man(a1-3)[GlcNAc(b1-2)Man(a1-6)]Man(b1-4)GlcNAc(b1-4)GlcNAc
Procedure, shortened: as §1

[8] = biological target: GlcNAc(b1-2)[GlcNAc(b1-4)]Man(a1-3)[GlcNAc(b1-4)][GlcNAc(b1-2)Man(a1-6)]Man(b1-4)GlcNAc(b1-4)GlcNAc
Procedure, shortened: as §1

[9] = biological target: GlcNAc(b1-2)[GlcNAc(b1-4)]Man(a1-3)[GlcNAc(b1-4)][GlcNAc(b1-2)[GlcNAc(b1-6)]Man(a1-6)]Man(b1-4)GlcNAc(b1-4)GlcNAc
Procedure, shortened: as §1

[10] = biological target: GlcNAc(b1-2)[GlcNAc(b1-4)]Man(a1-3)[GlcNAc(b1-4)][GlcNAc(b1-2)[GlcNAc(b1-6)]Man(a1-6)]Man(b1-4)GlcNAc(b1-4)[Fuc(a1-6)]GlcNAc
Procedure, shortened: as §1

[11] = biological target: GlcNAc(b1-2)[GlcNAc(b1-6)]Man(a1-6)[GlcNAc(b1-2)Man(a1-3)]Man(b1-4)GlcNAc(b1-4)GlcNAc
Procedure, shortened: as §1

[12] = biological target: GlcNAc(b1-2)[GlcNAc(b1-6)]Man(a1-6)[GlcNAc(b1-2)Man(a1-3)]Man(b1-4)GlcNAc(b1-4)[Fuc(a1-6)]GlcNAc
Procedure, shortened: as §1

[13] = biological target: GlcNAc(b1-2)[GlcNAc(b1-6)]Man(a1-6)[GlcNAc(b1-4)][GlcNAc(b1-2)Man(a1-3)]Man(b1-4)GlcNAc(b1-4)GlcNAc
Procedure, shortened: as §1

GlcNAc(b1-3)Fuc = biological target: GlcNAc(b1-3)Fuc
Procedure, shortened: as §1

GlcNAc(b1-3)Gal = biological target: GlcNAc(b1-3)Gal
Procedure, shortened: as §1

[14] = biological target: GlcNAc(b1-3)Gal(b1-3)GalNAc
Procedure, shortened: as §1

GlcNAc(b1-3)Gal(b1-4)Glc = biological target: GlcNAc(b1-3)Gal(b1-4)Glc
Procedure, shortened: as §1

[15] = biological target: GlcNAc(b1-3)Gal(b1-4)GlcNAc
Procedure, shortened: as §1

[16] = biological target: GlcNAc(b1-3)Gal(b1-4)GlcNAc(b1-2)Man(a1-3)[GlcNAc(b1-3)Gal(b1-4)GlcNAc(b1-2)Man(a1-6)]Man(b1-4)GlcNAc(b1-4)GlcNAc
Procedure, shortened: as §1

[17] = biological target: GlcNAc(b1-3)Gal(b1-4)GlcNAc(b1-2)Man(a1-3)[GlcNAc(b1-3)Gal(b1-4)GlcNAc(b1-2)Man(a1-6)]Man(b1-4)GlcNAc(b1-4)[Fuc(a1-6)]GlcNAc
Procedure, shortened: as §1

[18] = biological target: GlcNAc(b1-3)Gal(b1-4)GlcNAc(b1-2)[GlcNAc(b1-3)Gal(b1-4)GlcNAc(b1-6)]Man(a1-6)[GlcNAc(b1-3)Gal(b1-4)GlcNAc(b1-2)Man(a1-3)]Man(b1-4)GlcNAc(b1-4)GlcNAc
Procedure, shortened: as §1

[19] = biological target: GlcNAc(b1-3)Gal(b1-4)GlcNAc(b1-3)Gal(b1-4)GlcNAc
Procedure, shortened: as §1

[20] = biological target: GlcNAc(b1-3)Gal(b1-4)GlcNAc(b1-3)Gal(b1-4)GlcNAc(b1-2)Man(a1-3)[GlcNAc(b1-3)Gal(b1-4)GlcNAc(b1-3)Gal(b1-4)GlcNAc(b1-2)Man(a1-6)]Man(b1-4)GlcNAc(b1-4)GlcNAc
Procedure, shortened: as §1

[21] = biological target: GlcNAc(b1-3)Gal(b1-4)GlcNAc(b1-3)Gal(b1-4)GlcNAc(b1-2)Man(a1-3)[GlcNAc(b1-3)Gal(b1-4)GlcNAc(b1-3)Gal(b1-4)GlcNAc(b1-2)Man(a1-6)]Man(b1-4)GlcNAc(b1-4)[Fuc(a1-6)]GlcNAc
Procedure, shortened: as §1

[22] = biological target: GlcNAc(b1-3)Gal(b1-4)GlcNAc(b1-3)Gal(b1-4)GlcNAc(b1-2)[GlcNAc(b1-3)Gal(b1-4)GlcNAc(b1-3)Gal(b1-4)GlcNAc(b1-6)]Man(a1-6)[GlcNAc(b1-3)Gal(b1-4)GlcNAc(b1-3)Gal(b1-4)GlcNAc(b1-2)Man(a1-3)]Man(b1-4)GlcNAc(b1-4)[Fuc(a1-6)]GlcNAc
Procedure, shortened: as §1

[23] = biological target: GlcNAc(b1-3)Gal(b1-4)GlcNAc(b1-3)Gal(b1-4)GlcNAc(b1-3)Gal(b1-4)GlcNAc(b1-2)Man(a1-3)[GlcNAc(b1-3)Gal(b1-4)GlcNAc(b1-3)Gal(b1-4)GlcNAc(b1-3)Gal(b1-4)GlcNAc(b1-2)Man(a1-6)]Man(b1-4)GlcNAc(b1-4)GlcNAc
Procedure, shortened: as §1

[24] = biological target: GlcNAc(b1-3)Gal(b1-4)GlcNAc(b1-3)Gal(b1-4)GlcNAc(b1-3)Gal(b1-4)GlcNAc(b1-2)Man(a1-3)[GlcNAc(b1-3)Gal(b1-4)GlcNAc(b1-3)Gal(b1-4)GlcNAc(b1-3)Gal(b1-4)GlcNAc(b1-2)Man(a1-6)]Man(b1-4)GlcNAc(b1-4)[Fuc(a1-6)]GlcNAc
Procedure, shortened: as §1

[25] = biological target: GlcNAc(b1-3)Gal(b1-4)GlcNAc(b1-3)Gal(b1-4)GlcNAc(b1-3)Gal(b1-4)GlcNAc(b1-2)[GlcNAc(b1-3)Gal(b1-4)GlcNAc(b1-3)Gal(b1-4)GlcNAc(b1-3)Gal(b1-4)GlcNAc(b1-6)]Man(a1-6)[GlcNAc(b1-3)Gal(b1-4)GlcNAc(b1-3)Gal(b1-4)GlcNAc(b1-3)Gal(b1-4)GlcNAc(b1-2)Man(a1-3)]Man(b1-4)GlcNAc(b1-4)[Fuc(a1-6)]GlcNAc
Procedure, shortened: as §1

[26] = biological target: GlcNAc(b1-3)Gal(b1-4)GlcNAc(b1-3)Gal(b1-4)GlcNAc(b1-3)Gal(b1-4)GlcNAc(b1-3)Gal(b1-4)GlcNAc(b1-2)Man(a1-3)[GlcNAc(b1-3)Gal(b1-4)GlcNAc(b1-3)Gal(b1-4)GlcNAc(b1-3)Gal(b1-4)GlcNAc(b1-3)Gal(b1-4)GlcNAc(b1-2)Man(a1-6)]Man(b1-4)GlcNAc(b1-4)GlcNAc
Procedure, shortened: as §1

[27] = biological target: GlcNAc(b1-3)Gal(b1-4)GlcNAc(b1-3)Gal(b1-4)GlcNAc(b1-3)Gal(b1-4)GlcNAc(b1-3)Gal(b1-4)GlcNAc(b1-2)Man(a1-3)[GlcNAc(b1-3)Gal(b1-4)GlcNAc(b1-3)Gal(b1-4)GlcNAc(b1-3)Gal(b1-4)GlcNAc(b1-3)Gal(b1-4)GlcNAc(b1-2)Man(a1-6)]Man(b1-4)GlcNAc(b1-4)[Fuc(a1-6)]GlcNAc
Procedure, shortened: as §1

[28] = biological target: GlcNAc(b1-3)Gal(b1-4)GlcNAc(b1-3)Gal(b1-4)GlcNAc(b1-3)Gal(b1-4)GlcNAc(b1-3)Gal(b1-4)GlcNAc(b1-2)[GlcNAc(b1-3)Gal(b1-4)GlcNAc(b1-3)Gal(b1-4)GlcNAc(b1-3)Gal(b1-4)GlcNAc(b1-3)Gal(b1-4)GlcNAc(b1-6)]Man(a1-6)[GlcNAc(b1-3)Gal(b1-4)GlcNAc(b1-3)Gal(b1-4)GlcNAc(b1-3)Gal(b1-4)GlcNAc(b1-3)Gal(b1-4)GlcNAc(b1-2)Man(a1-3)]Man(b1-4)GlcNAc(b1-4)[Fuc(a1-6)]GlcNAc
Procedure, shortened: as §1

[29] = biological target: GlcNAc(b1-3)Gal(b1-4)GlcNAc(b1-3)Gal(b1-4)GlcNAc(b1-3)GalNAc
Procedure, shortened: as §1

[30] = biological target: GlcNAc(b1-3)Gal(b1-4)GlcNAc(b1-3)GalNAc
Procedure, shortened: as §1

[31] = biological target: GlcNAc(b1-3)Gal(b1-4)GlcNAc(b1-3)[GlcNAc(b1-3)Gal(b1-4)GlcNAc(b1-3)]GalNAc
Procedure, shortened: as §1

[32] = biological target: GlcNAc(b1-3)Gal(b1-4)GlcNAc(b1-6)[Gal(b1-3)]GalNAc
Procedure, shortened: as §1

[33] = biological target: GlcNAc(b1-3)Gal(b1-4)GlcNAc(b1-6)[GlcNAc(b1-3)Gal(b1-3)]GalNAc
Procedure, shortened: as §1

[34] = biological target: GlcNAc(b1-3)Gal(b1-4)GlcNAc(b1-6)[GlcNAc(b1-3)]Gal(b1-4)GlcNAc
Procedure, shortened: as §1

GlcNAc(b1-3)GalNAc = biological target: GlcNAc(b1-3)GalNAc
Procedure, shortened: as §1

GlcNAc(b1-3)Man = biological target: GlcNAc(b1-3)Man
Procedure, shortened: as §1

[35] = biological target: GlcNAc(b1-3)[GlcNAc(b1-4)][GlcNAc(b1-6)]GlcNAc
Procedure, shortened: as §1

[36] = biological target: GlcNAc(b1-3)[GlcNAc(b1-6)]Gal(b1-4)GlcNAc
Procedure, shortened: as §1

[37] = biological target: GlcNAc(b1-3)[GlcNAc(b1-6)]GalNAc
Procedure, shortened: as §1

[38] = biological target: GlcNAc(b1-4)Gal(b1-4)GlcNAc
Procedure, shortened: as §1

GlcNAc(b1-4)GlcNAc = biological target: GlcNAc(b1-4)GlcNAc
Procedure, shortened: as §1

[39] = biological target: GlcNAc(b1-4)GlcNAc(b1-4)GlcNAc
Procedure, shortened: as §1

B1: pTFF2 (Sus scrofa), P01359 (protein)
chain: KPAACRCSRQDPKNRVNCGFPGITSDQCFTSGCCFDSQVPGVPWCFKPLPAQESEECVMEVSARKNCGYPGISPEDCAARNCCFSDTIPEVPWCFFPMSVEACHY
- glycan array binding signal (z-score) [1]: -0.043
- glycan array binding signal (z-score) [2]: 0.194
- glycan array binding signal (z-score) [3]: -0.161
- glycan array binding signal (z-score) [4]: -1.4
- glycan array binding signal (z-score) [5]: 0.002
- glycan array binding signal (z-score) [6]: -1.66
- glycan array binding signal (z-score) [7]: -0.501
- glycan array binding signal (z-score) [8]: -0.215
- glycan array binding signal (z-score) [9]: -0.768
- glycan array binding signal (z-score) [10]: -0.986
- glycan array binding signal (z-score) [11]: -0.207
- glycan array binding signal (z-score) [12]: -0.059
- glycan array binding signal (z-score) [13]: 0.104
- glycan array binding signal (z-score) (GlcNAc(b1-3)Fuc): 0.291
- glycan array binding signal (z-score) (GlcNAc(b1-3)Gal): 1.27
- glycan array binding signal (z-score) [14]: 0.04
- glycan array binding signal (z-score) (GlcNAc(b1-3)Gal(b1-4)Glc): -0.368
- glycan array binding signal (z-score) [15]: -0.194
- glycan array binding signal (z-score) [16]: -0.834
- glycan array binding signal (z-score) [17]: -0.454
- glycan array binding signal (z-score) [18]: 0.197
- glycan array binding signal (z-score) [19]: -1.26
- glycan array binding signal (z-score) [20]: 0.928
- glycan array binding signal (z-score) [21]: 0.168
- glycan array binding signal (z-score) [22]: 1.53
- glycan array binding signal (z-score) [23]: -0.212
- glycan array binding signal (z-score) [24]: 0.686
- glycan array binding signal (z-score) [25]: 0.559
- glycan array binding signal (z-score) [26]: -0.223
- glycan array binding signal (z-score) [27]: 4.15
- glycan array binding signal (z-score) [28]: 0.97
- glycan array binding signal (z-score) [29]: -1.25
- glycan array binding signal (z-score) [30]: 3.21
- glycan array binding signal (z-score) [31]: 1.85
- glycan array binding signal (z-score) [32]: 0.277
- glycan array binding signal (z-score) [33]: -0.295
- glycan array binding signal (z-score) [34]: -0.954
- glycan array binding signal (z-score) (GlcNAc(b1-3)GalNAc): -0.56
- glycan array binding signal (z-score) (GlcNAc(b1-3)Man): 0.176
- glycan array binding signal (z-score) [35]: 0.277
- glycan array binding signal (z-score) [36]: 1.01
- glycan array binding signal (z-score) [37]: -0.497
- glycan array binding signal (z-score) [38]: -1.05
- glycan array binding signal (z-score) (GlcNAc(b1-4)GlcNAc): 0.562
- glycan array binding signal (z-score) [39]: -0.935

Reference: the supplement of paper PMC8728848
